The source of these data is the supplement of paper PMC6411743.

Protein sequences, listed by entry. Tags and fused reporters are not part of them. Lines headed by an entry give the natural chain unless they say otherwise; changes in a name come on top.
UniProt Q01650: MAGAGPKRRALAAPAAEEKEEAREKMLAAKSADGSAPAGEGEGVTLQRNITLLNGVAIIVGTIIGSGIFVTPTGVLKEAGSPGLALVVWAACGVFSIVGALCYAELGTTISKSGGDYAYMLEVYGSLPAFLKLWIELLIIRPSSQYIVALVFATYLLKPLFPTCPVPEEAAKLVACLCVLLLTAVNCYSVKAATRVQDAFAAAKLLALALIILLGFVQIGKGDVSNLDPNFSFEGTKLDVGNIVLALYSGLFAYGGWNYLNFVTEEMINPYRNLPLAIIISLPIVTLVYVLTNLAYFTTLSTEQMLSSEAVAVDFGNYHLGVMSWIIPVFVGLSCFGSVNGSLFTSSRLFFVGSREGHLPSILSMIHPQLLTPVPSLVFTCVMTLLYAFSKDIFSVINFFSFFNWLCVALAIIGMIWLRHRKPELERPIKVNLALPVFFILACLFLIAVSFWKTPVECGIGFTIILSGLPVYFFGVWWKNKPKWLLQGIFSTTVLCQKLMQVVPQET
UniProt Q14232, whole entry: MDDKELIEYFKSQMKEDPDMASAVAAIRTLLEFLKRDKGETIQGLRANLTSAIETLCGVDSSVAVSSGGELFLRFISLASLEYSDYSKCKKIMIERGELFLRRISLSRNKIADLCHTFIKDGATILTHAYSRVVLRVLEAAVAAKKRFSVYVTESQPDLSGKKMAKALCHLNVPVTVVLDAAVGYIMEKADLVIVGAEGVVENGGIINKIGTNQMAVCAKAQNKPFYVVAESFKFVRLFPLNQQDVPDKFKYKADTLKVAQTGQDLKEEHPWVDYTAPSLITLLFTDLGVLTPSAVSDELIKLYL
UniProt Q13588: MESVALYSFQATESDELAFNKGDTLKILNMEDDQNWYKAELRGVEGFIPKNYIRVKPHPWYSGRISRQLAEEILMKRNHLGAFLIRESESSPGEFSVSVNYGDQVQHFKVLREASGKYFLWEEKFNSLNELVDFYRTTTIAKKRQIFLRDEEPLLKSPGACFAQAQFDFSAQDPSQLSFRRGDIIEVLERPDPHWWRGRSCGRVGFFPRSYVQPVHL
UniProt Q10570: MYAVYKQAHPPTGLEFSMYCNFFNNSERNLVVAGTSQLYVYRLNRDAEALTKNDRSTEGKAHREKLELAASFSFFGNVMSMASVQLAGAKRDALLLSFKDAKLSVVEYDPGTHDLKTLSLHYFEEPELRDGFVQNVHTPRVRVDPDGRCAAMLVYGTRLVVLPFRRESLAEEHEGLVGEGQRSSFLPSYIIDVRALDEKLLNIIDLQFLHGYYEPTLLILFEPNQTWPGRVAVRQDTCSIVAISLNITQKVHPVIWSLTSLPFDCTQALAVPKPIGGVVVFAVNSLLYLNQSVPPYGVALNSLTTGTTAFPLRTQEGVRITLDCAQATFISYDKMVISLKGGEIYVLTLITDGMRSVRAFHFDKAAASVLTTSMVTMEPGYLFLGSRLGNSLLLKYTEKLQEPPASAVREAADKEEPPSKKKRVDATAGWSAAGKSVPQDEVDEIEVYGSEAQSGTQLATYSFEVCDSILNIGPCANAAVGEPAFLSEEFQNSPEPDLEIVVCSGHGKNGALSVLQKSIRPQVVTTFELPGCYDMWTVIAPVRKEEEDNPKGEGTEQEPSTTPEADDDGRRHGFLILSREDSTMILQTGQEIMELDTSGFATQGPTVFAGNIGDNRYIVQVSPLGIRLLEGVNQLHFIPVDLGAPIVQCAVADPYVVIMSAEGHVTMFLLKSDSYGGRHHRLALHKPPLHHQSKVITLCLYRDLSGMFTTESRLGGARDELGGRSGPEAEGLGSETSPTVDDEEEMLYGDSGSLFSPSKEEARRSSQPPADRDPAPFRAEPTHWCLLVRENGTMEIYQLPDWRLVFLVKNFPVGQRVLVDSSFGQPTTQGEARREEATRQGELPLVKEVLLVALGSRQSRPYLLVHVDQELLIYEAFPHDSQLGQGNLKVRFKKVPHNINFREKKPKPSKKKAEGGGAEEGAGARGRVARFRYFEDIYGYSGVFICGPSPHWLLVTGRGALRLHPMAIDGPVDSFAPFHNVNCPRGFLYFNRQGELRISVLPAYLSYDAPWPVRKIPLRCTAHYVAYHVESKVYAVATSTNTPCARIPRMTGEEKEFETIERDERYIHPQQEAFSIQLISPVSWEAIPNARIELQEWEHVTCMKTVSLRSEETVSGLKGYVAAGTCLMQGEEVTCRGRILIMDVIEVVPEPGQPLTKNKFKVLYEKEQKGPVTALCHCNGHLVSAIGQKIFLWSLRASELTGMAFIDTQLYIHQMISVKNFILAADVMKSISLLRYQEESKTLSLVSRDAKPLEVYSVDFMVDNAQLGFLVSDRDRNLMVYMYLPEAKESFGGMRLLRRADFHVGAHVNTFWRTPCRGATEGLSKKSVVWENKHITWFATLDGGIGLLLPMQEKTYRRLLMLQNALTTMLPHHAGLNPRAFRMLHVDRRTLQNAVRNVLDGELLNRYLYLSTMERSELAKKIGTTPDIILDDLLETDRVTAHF
UniProt Q0PNE2: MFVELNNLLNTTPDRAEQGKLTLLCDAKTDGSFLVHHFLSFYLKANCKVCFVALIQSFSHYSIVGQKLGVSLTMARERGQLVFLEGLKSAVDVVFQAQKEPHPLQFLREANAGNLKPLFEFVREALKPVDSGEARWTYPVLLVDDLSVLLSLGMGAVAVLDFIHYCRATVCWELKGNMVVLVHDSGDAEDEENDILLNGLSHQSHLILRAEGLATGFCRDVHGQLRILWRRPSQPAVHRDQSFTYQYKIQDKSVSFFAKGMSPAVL
UniProt Q14258, whole entry: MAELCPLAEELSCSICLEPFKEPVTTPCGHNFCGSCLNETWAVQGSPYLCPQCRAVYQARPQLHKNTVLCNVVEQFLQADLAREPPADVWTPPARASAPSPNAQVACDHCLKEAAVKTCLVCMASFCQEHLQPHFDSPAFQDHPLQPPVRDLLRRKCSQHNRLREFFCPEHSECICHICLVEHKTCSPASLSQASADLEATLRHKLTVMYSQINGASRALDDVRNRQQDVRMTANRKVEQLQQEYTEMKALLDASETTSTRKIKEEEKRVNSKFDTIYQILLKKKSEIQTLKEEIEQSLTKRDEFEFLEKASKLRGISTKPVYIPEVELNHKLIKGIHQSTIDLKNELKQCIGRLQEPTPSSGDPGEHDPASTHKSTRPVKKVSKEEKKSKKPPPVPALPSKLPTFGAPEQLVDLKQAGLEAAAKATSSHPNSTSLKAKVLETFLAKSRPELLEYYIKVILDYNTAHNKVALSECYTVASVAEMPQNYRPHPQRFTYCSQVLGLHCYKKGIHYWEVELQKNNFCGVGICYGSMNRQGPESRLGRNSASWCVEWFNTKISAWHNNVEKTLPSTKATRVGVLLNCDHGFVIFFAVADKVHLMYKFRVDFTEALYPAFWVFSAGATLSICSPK
UniProt Q13308: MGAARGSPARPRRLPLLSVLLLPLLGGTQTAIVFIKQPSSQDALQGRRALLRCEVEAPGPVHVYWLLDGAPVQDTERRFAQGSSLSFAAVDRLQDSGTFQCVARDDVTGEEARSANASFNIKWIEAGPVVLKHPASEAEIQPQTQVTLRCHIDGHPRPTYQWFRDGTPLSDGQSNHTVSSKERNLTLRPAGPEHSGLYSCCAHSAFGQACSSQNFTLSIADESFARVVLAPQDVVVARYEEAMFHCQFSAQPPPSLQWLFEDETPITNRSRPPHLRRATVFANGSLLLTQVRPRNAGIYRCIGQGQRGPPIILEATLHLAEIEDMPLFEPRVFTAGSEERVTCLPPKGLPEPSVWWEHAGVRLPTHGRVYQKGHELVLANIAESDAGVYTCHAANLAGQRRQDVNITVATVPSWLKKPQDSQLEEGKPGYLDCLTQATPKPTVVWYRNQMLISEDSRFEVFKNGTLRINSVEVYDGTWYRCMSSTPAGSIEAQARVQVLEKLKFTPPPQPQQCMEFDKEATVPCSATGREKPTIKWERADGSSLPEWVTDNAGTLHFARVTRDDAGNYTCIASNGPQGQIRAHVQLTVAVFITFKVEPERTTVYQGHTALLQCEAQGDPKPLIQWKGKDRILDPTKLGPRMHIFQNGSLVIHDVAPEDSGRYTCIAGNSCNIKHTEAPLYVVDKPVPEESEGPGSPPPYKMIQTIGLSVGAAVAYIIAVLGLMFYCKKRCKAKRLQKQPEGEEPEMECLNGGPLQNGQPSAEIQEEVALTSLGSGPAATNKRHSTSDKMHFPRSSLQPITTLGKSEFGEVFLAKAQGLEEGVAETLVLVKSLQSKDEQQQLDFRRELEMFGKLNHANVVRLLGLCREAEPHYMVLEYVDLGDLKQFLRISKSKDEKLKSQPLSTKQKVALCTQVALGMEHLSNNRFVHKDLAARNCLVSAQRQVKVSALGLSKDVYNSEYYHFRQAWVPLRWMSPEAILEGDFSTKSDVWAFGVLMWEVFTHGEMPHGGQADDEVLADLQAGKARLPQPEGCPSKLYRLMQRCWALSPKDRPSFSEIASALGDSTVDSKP
UniProt Q09028, whole entry: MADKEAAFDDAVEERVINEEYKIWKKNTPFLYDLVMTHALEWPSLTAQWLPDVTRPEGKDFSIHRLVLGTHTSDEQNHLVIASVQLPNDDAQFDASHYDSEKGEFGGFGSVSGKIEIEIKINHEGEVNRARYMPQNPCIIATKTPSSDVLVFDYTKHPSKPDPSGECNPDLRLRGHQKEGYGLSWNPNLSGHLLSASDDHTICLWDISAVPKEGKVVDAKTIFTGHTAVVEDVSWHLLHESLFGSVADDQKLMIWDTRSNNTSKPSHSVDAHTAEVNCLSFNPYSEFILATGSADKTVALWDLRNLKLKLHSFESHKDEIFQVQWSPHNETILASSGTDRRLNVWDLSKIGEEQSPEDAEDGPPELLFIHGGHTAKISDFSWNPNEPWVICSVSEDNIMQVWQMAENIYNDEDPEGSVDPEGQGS
UniProt Q08722, whole entry: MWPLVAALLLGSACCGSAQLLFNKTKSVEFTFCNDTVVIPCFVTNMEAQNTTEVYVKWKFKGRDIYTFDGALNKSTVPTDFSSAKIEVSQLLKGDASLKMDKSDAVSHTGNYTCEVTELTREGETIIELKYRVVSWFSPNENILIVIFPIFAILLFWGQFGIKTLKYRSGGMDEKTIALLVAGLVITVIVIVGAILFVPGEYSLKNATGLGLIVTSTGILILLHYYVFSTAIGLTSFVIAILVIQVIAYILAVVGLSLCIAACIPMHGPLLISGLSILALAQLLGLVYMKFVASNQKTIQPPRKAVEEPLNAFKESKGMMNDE
UniProt Q05086: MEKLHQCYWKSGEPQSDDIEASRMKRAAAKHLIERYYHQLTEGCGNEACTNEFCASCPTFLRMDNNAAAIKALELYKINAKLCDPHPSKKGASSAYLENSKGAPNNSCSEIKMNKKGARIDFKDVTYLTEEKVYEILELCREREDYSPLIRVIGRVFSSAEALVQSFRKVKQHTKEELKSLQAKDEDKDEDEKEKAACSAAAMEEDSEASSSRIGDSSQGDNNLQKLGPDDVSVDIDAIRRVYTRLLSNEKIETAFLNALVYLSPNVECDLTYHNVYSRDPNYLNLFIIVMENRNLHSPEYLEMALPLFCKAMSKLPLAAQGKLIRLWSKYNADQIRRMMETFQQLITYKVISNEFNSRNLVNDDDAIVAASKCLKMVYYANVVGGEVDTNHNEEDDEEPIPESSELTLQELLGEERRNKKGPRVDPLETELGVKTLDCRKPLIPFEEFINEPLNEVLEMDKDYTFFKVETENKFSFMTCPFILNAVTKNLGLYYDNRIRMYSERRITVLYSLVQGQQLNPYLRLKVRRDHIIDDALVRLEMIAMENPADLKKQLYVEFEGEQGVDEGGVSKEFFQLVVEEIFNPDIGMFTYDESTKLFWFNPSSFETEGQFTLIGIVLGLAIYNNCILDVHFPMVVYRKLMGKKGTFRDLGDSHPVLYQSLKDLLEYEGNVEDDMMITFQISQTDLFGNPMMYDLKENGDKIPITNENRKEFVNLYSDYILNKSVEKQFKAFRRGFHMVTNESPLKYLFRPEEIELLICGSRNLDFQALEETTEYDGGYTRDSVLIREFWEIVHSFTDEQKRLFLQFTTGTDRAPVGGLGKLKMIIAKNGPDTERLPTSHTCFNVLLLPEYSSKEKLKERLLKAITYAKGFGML

Compound in the assay: Nc1nc2c(ncn2[C@@H]2O[C@H](COP(=O)(O)OP(=O)(O)OP(=O)(O)O)[C@@H](O)[C@H]2O)c(=O)[nH]1 [guanosine triphosphate]
Kind of assay: NP40-soluble protein abundance relative to vehicle (solubility fold change) (ratio); higher = more soluble protein in presence of GTP. In short, it runs like this:
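Each value is a fold change relative to the detergent-processed vehicle, calculated per replicate from vsn-normalised intensities. Jurkat crude lysate received eight concentrations (0.1 to 10 mM) for 10 min at room temperature and 3 min at 37 °C, then was solubilised in 0.8% NP40 with benzonase (60 min, 4 °C). The ultracentrifuged supernatant was TMT-labelled and run by LC-MS/MS in three independent experiments.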

± gives the standard deviation of the averaged measurements. The list shows a part of the results.

On to UniProt Q14669-2|Q14669-3, for which the NP40-soluble protein abundance runs as follows: (concentration: 0.1mM) 1.04 ± 0.035; (concentration: 0.5mM) 1.09 ± 0.045; (concentration: 1mM) 1.11 ± 0.013; (concentration: 2mM) 1.18 ± 0.058; (concentration: 4mM) 1.23 ± 0.089; (concentration: 6mM) 1.25 ± 0.095. Besides, the NP40-soluble protein abundance by setting is: (concentration: 8mM) 1.31 ± 0.13; (concentration: 10mM) 1.31 ± 0.13.
SLC7A5 (UniProt Q01650): the NP40-soluble protein abundance was 0.923 ± 0.013 (concentration: 0.1mM); 0.918 ± 0.015 (concentration: 0.5mM); 0.952 ± 0.036 (concentration: 1mM); 0.908 ± 0.063 (concentration: 2mM); 0.915 ± 0.064 (concentration: 4mM); 0.927 ± 0.089 (concentration: 6mM). Also, the NP40-soluble protein abundance runs as follows: (concentration: 8mM) 0.951 ± 0.034; (concentration: 10mM) 0.947 ± 0.083.
In the case of EIF2B1 (UniProt Q14232), the NP40-soluble protein abundance stood at 0.97 ± 0.013 (concentration: 0.1mM); 0.969 ± 0.022 (concentration: 0.5mM); 0.945 ± 0.026 (concentration: 1mM); 0.924 ± 0.06 (concentration: 2mM); 0.915 ± 0.035 (concentration: 4mM); 0.925 ± 0.042 (concentration: 6mM). Moreover, the NP40-soluble protein abundance reads like this: (concentration: 8mM) 0.899 ± 0.015; (concentration: 10mM) 0.885 ± 0.03.
As for UniProt Q13588 and related entries, the NP40-soluble protein abundance was found to be 1.06 ± 0.061 (concentration: 0.1mM); 1.05 ± 0.035 (concentration: 0.5mM); 0.937 ± 0.058 (concentration: 1mM); 0.968 ± 0.085 (concentration: 2mM); 0.992 ± 0.051 (concentration: 4mM); 0.966 ± 0.044 (concentration: 6mM). Besides, the NP40-soluble protein abundance stood at 0.946 ± 0.025 (concentration: 8mM) and 0.929 ± 0.099 (concentration: 10mM).
In the case of CPSF1 (UniProt Q10570), the NP40-soluble protein abundance (concentration: 0.1mM) is 1.1 ± 0.043; the NP40-soluble protein abundance (concentration: 0.5mM) was found to be 1.15 ± 0.085; the NP40-soluble protein abundance (concentration: 1mM) turned out to be 1.13 ± 0.063; the NP40-soluble protein abundance (concentration: 2mM) is 1.19 ± 0.11; the NP40-soluble protein abundance (concentration: 4mM) is 1.26 ± 0.087; the NP40-soluble protein abundance (concentration: 6mM) stood at 1.26 ± 0.096. The NP40-soluble protein abundance by setting is: (concentration: 8mM) 1.26 ± 0.13; (concentration: 10mM) 1.22 ± 0.098.
On to UniProt Q0PNE2 and related entries, for which the NP40-soluble protein abundance is 1.05 ± 0.015 (concentration: 0.1mM); 1.14 ± 0.29 (concentration: 0.5mM); 1.02 ± 0.21 (concentration: 1mM); 1.08 ± 0.1 (concentration: 2mM); 1.2 ± 0.17 (concentration: 4mM); 1.08 ± 0.28 (concentration: 6mM). Moreover, the NP40-soluble protein abundance by setting is: (concentration: 8mM) 1.06 ± 0.11; (concentration: 10mM) 1.03 ± 0.018.
With UniProt Q13469 and related entries, the NP40-soluble protein abundance (concentration: 0.1mM) is 0.995 ± 0.018; the NP40-soluble protein abundance (concentration: 0.5mM) was found to be 0.969 ± 0.028; the NP40-soluble protein abundance (concentration: 1mM) is 0.971 ± 0.048; the NP40-soluble protein abundance (concentration: 2mM) is 0.935 ± 0.032; the NP40-soluble protein abundance (concentration: 4mM) came to 0.933 ± 0.054; the NP40-soluble protein abundance (concentration: 6mM) was 0.913 ± 0.034. For the same target, the NP40-soluble protein abundance reads like this: (concentration: 8mM) 0.963 ± 0.016; (concentration: 10mM) 0.931 ± 0.038.
Regarding TRIM25 (UniProt Q14258), the NP40-soluble protein abundance (concentration: 0.1mM) came to 1.01 ± 0.02; the NP40-soluble protein abundance (concentration: 0.5mM) stood at 1.04 ± 0.036; the NP40-soluble protein abundance (concentration: 1mM) worked out at 0.983 ± 0.016; the NP40-soluble protein abundance (concentration: 2mM) was found to be 0.987 ± 0.022; the NP40-soluble protein abundance (concentration: 4mM) was 0.95 ± 0.024; the NP40-soluble protein abundance (concentration: 6mM) was 0.966 ± 0.039. Moreover, the NP40-soluble protein abundance is 0.947 ± 0.037 (concentration: 8mM) and 0.937 ± 0.05 (concentration: 10mM).
Consider UniProt Q01813 and related entries, for which the NP40-soluble protein abundance was 1.05 ± 0.03 (concentration: 0.1mM); 1.08 ± 0.07 (concentration: 0.5mM); 1.05 ± 0.054 (concentration: 1mM); 1.04 ± 0.083 (concentration: 2mM); 1.06 ± 0.084 (concentration: 4mM); 1.06 ± 0.09 (concentration: 6mM). Moreover, the NP40-soluble protein abundance (concentration: 8mM) was 1.04 ± 0.075 and the NP40-soluble protein abundance (concentration: 10mM) amounted to 0.983 ± 0.06.
For UniProt Q13308 and related entries, the NP40-soluble protein abundance reads like this: (concentration: 0.1mM) 0.957 ± 0.065; (concentration: 0.5mM) 0.895 ± 0.043; (concentration: 1mM) 0.946 ± 0.067; (concentration: 2mM) 0.91 ± 0.08; (concentration: 4mM) 0.922 ± 0.079; (concentration: 6mM) 0.868 ± 0.05. For the same target, the NP40-soluble protein abundance was 0.925 ± 0.078 (concentration: 8mM) and 0.883 ± 0.078 (concentration: 10mM).
With UniProt Q09028 and related entries, the NP40-soluble protein abundance (concentration: 0.1mM) was determined as 0.92 ± 0.12; the NP40-soluble protein abundance (concentration: 0.5mM) was 0.959 ± 0.086; the NP40-soluble protein abundance (concentration: 1mM) turned out to be 0.926 ± 0.11; the NP40-soluble protein abundance (concentration: 2mM) was 0.956 ± 0.12; the NP40-soluble protein abundance (concentration: 4mM) worked out at 0.973 ± 0.11; the NP40-soluble protein abundance (concentration: 6mM) was 0.99 ± 0.11. Moreover, the NP40-soluble protein abundance (concentration: 8mM) is 0.98 ± 0.16 and the NP40-soluble protein abundance (concentration: 10mM) came to 0.973 ± 0.14.
With RBL2 (UniProt Q08999), the NP40-soluble protein abundance was found to be 1.04 ± 0.013 (concentration: 0.1mM); 0.997 ± 0.019 (concentration: 0.5mM); 1.05 ± 0.019 (concentration: 1mM); 1.04 ± 0.037 (concentration: 2mM); 1.03 ± 0.12 (concentration: 4mM); 1.03 ± 0.062 (concentration: 6mM). Moreover, the NP40-soluble protein abundance by setting is: (concentration: 8mM) 1.02 ± 0.09; (concentration: 10mM) 1.03 ± 0.14.
On to UniProt Q14558-2, for which the NP40-soluble protein abundance (concentration: 0.1mM) amounted to 1.11 ± 0.07; the NP40-soluble protein abundance (concentration: 0.5mM) worked out at 1.22 ± 0.17; the NP40-soluble protein abundance (concentration: 1mM) amounted to 1.2 ± 0.13; the NP40-soluble protein abundance (concentration: 2mM) was 1.29 ± 0.2; the NP40-soluble protein abundance (concentration: 4mM) was 1.23 ± 0.21; the NP40-soluble protein abundance (concentration: 6mM) turned out to be 1.28 ± 0.18. For the same target, the NP40-soluble protein abundance came out at 1.27 ± 0.23 (concentration: 8mM) and 1.22 ± 0.19 (concentration: 10mM).
Take CD47 (UniProt Q08722): the NP40-soluble protein abundance is 0.821 ± 0.028 (concentration: 0.1mM); 0.837 ± 0.062 (concentration: 0.5mM); 0.876 ± 0.03 (concentration: 1mM); 0.816 ± 0.06 (concentration: 2mM); 0.802 ± 0.076 (concentration: 4mM); 0.838 ± 0.068 (concentration: 6mM). For the same target, the NP40-soluble protein abundance by setting is: (concentration: 8mM) 0.779 ± 0.086; (concentration: 10mM) 0.814 ± 0.055.
For UniProt Q05086 and related entries, the NP40-soluble protein abundance was found to be 1 ± 0.031 (concentration: 0.1mM); 1.01 ± 0.033 (concentration: 0.5mM); 0.947 ± 0.038 (concentration: 1mM); 0.942 ± 0.043 (concentration: 2mM); 0.929 ± 0.036 (concentration: 4mM); 0.941 ± 0.049 (concentration: 6mM). For the same target, the NP40-soluble protein abundance is, setting by setting: (concentration: 8mM) 0.9237 ± 0.0076; (concentration: 10mM) 0.886 ± 0.036.
